Experimental data: PMC10407929
Results from cells or extracts need not show a direct contact. Negatives hold for the conditions tested. For some assays here: Protein sequences can lack the tags named with them. For some assays here: The comparison behind a weaker result is the experiment's own reference, which may not be listed here.

Sequences of proteins named here, by UniProt entry; tags and fusion partners are left off.
UniProt P08047, whole entry: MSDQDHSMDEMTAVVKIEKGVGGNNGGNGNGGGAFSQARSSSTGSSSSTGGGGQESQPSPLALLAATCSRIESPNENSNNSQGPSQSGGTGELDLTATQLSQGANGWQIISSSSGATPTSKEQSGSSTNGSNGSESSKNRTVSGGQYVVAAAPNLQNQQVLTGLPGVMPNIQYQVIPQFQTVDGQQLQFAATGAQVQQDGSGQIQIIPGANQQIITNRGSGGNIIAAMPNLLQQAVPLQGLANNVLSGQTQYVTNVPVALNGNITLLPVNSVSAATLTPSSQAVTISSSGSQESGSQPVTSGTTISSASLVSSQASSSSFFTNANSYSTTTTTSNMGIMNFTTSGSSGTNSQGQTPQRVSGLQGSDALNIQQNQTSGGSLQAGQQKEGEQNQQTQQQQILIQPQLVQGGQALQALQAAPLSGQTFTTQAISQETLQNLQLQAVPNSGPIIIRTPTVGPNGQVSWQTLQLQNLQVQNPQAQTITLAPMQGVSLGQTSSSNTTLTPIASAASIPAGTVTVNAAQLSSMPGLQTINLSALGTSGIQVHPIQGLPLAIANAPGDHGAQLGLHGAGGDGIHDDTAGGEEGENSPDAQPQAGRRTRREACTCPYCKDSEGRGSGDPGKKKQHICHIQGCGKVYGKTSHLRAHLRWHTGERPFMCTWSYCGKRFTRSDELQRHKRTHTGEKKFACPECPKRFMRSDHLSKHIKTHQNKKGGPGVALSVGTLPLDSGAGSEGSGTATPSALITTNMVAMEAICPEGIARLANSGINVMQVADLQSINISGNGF

Legend:
Experiment in all cases: pull-down
[1] = molecular target: T1, BEND3 (Homo sapiens) (UniProt Q5T5X7); conditions: 150 mM NaCl, 50 mM Tris pH 8.0, 0.25% NP-40, 1 mM DTT, 4 C, 2 h, 100 ug nuclear extract, label: 5' biotin (strand 1)
T1 sequence (looked up, limits assumed): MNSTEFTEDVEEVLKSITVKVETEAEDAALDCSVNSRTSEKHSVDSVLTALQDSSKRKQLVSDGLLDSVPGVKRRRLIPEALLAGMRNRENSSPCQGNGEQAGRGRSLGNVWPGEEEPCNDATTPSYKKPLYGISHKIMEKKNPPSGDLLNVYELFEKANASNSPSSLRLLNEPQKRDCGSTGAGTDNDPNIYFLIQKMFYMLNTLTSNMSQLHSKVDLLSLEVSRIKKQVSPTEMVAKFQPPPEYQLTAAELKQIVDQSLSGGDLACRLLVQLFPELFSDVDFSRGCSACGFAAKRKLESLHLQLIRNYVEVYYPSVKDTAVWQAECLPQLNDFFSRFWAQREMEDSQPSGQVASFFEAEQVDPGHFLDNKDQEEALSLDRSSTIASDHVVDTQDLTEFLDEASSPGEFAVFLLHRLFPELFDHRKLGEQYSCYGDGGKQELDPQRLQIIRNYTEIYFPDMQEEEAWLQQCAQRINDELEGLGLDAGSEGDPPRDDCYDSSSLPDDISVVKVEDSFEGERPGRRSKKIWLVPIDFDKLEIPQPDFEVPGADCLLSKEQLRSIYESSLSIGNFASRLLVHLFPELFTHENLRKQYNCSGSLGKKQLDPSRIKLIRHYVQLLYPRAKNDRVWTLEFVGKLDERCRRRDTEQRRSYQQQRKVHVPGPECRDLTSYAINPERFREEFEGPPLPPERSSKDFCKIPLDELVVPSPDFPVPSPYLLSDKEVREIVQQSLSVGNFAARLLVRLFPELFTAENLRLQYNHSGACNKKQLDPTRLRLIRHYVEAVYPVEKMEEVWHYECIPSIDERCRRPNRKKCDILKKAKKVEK

[2] = molecular target: T2, BANP (Homo sapiens) (UniProt Q8N9N5); conditions: 150 mM NaCl, 50 mM Tris pH 8.0, 0.25% NP-40, 1 mM DTT, 4 C, 2 h, 100 ug nuclear extract, label: 5' biotin (strand 1)
T2 sequence (looked up, limits assumed): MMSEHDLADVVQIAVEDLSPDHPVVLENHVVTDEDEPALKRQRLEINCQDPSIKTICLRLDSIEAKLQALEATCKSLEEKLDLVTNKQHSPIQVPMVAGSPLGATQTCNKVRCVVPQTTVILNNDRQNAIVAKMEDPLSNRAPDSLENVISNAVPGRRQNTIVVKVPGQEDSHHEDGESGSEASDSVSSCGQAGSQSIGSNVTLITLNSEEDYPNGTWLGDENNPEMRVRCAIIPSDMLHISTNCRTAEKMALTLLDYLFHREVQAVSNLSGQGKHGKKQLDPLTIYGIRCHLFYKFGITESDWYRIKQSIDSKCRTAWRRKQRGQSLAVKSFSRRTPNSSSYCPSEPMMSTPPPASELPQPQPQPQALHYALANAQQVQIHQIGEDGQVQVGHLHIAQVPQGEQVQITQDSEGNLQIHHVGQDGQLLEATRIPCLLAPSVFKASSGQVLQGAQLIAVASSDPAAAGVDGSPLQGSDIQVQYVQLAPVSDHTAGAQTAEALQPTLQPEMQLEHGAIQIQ

[3] = molecular target: SP1 (Homo sapiens) (UniProt P08047); conditions: 150 mM NaCl, 50 mM Tris pH 8.0, 0.25% NP-40, 1 mM DTT; 4 C, 2 h; 100 ug nuclear extract; protein in an extract; label: 5' biotin (strand 1); variant of SP/KLF bait
[4] = 5mC at 16,18 (strand 1), 5mC at 11,13 (strand 2), protein in an …, variant of BEND3 bait
[5] = protein in an extract, variant of BEND3 bait
[6] = protein in an extract, variant of CGCG bait
[7] = 5mC at 15,17 (strand 1), 5mC at 14,16 (strand 2), protein in an …, variant of CGCG bait

## GCCGCCGCCCTTCTCGCGAGACTGCCGGGCC (double strand) [CGCG bait]
[1]; protein in an extract
  binding result: binds more weakly

## GCCGCCGCCCTCCCACGCGCTGCCGGGCC (double strand) [methylated BEND3 bait]
[2]; [4]
  binding result: no binding
[1]; [4]
  binding result: no binding

## GCCGCCGCCCTCCCACGCGCTGCCGGGCC (double strand) [BEND3 bait]
[2]; protein in an extract
  binding result: no binding

## GCCGCCGCCCTGCAGCCCCCTGCCGGGCC (double strand) [BEND3 negative control bait]
[2]; [5]
  binding result: no binding
[1]; [5]
  binding result: no binding

## GCCGCCGCCCTTCGGCAAGTCCTGCCGGGCC (double strand) [CGCG negative control bait]
[2]; [6]
  binding result: no binding
[1]; [6]
  binding result: no binding

## GAGAGAAAATAAAACTGGCT (double strand) [SP/KLF negative control bait]
[3]
  binding result: no binding

## GCCGCCGCCCTTCTCGCGAGACTGCCGGGCC (double strand) [methylated CGCG bait]
[2]; [7]
  binding result: no binding
[1]; [7]
  binding result: binds more weakly
